In PubChem BioAssay AID1487 (National Center for Advancing Translational Sciences (NCATS), 2009):
Several values for one entry are separate records, joined by “and”; a condition that tells them apart may be missing. Equal entries are not always repeated. Some of the results follow. Shown are side measurements of this screen, not its main read-out; they come without a call. Compounds called inactive in the main read-out are mostly missing here. The note in brackets gives the kind of curve behind each potency; many fits are weak.

Test: qHTS Assay for Modulators of Lamin A Splicing
Settings: HeLa LMNA splicing GFP/RFP minigene ratio, 48 h
Procedure, shortened: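 S3 HeLa cells stably expressing lamin A-EGFP splicing minigene plus DsRed2, 600 cells/well, 48 h compound exposure at 37C. Laser-scanning cytometry; analysed as GFP (500-530 nm)/RFP (575-640 nm) total intensity ratio; 0.5% DMSO vehicle.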

[1] = measured here: GFP splicing reporter channel
[2] = measured here: RFP viability control channel

| SMILES | AC50 [1] | AC50 [2] |
| --- | --- | --- |
| CN(C)CCOC(c1ccc(Cl)cc1)c1ccccn1 (centres undefined) | 20 µM [falling, single point] | 35.5 µM [falling, single point] |
| Nn1c(Cc2ccccc2F)nnc1SCCOc1ccc(Cl)cc1 | 11.2 µM [rising, partial curve] | 35.5 µM [rising, single point] |
| CCn1c(=O)c2c(nc3n2CCN3c2ccccc2)n(C)c1=O | 0.891 µM [rising, partial curve] |  |
| C=C1CCC2[C@](C)(CO)C(O)CC[C@]2(C)C1C/C=C1/C(=O)OCC1O (some centres undefined) | 4.47 µM [rising, single point] | 1.41 µM [rising, full curve] |
| Cc1noc(C)c1C(=O)Nc1nc(-c2ccccc2Cl)cs1 |  | 12.6 µM [rising, partial curve, poor fit] |
| Cc1[nH]n(-c2ccccc2)c(=O)c1C(C[N+](=O)[O-])c1ccc(Br)cc1 (centres undefined) |  | 10 µM [rising, single point] |
| CC(=O)Nn1cc2c(c1-c1ccccc1)c(=O)n(C)c(=O)n2C |  | 10 µM [rising, partial curve, poor fit] |
| O=C(c1cccc(COc2ccc(Cl)cc2Cl)c1)N1CCN(c2ccccn2)CC1 |  | 31.6 µM [rising, single point] |
| Clc1ccc(CC[C@H](Cn2ccnc2)Sc2c(Cl)cccc2Cl)cc1 |  | 0.224 µM [rising, full curve] |
| O=C1c2ccccc2CC1(Cc1ccccc1)Cc1ccccc1 |  | 22.4 µM [rising, single point] |
| COC(=O)c1nnn(CC(=O)NC(=O)Nc2ccccc2)c1C(=O)OC |  | 1.41 µM [falling, partial curve, poor fit] |
| O=C(Nc1ccc(F)cc1)C1CCN(c2nc3ccccc3n3cccc23)CC1 | 7.08 µM [falling, partial curve, poor fit] | 0.224 µM [falling, full curve, poor fit] |
| CCCCN(C)C(=O)C1CCN(Cc2ccc(OCc3ccccc3)cc2)CC1 |  | 35.5 µM [rising, single point] |
| COc1cc(/C=N/NC(=S)NC2CC3CC2C2C=CCC32)ccc1O (centres undefined) |  | 22.4 µM [falling, single point] |
| O=c1[nH]c(=O)n(Cc2ccccc2)c2nc(-c3ccc(Oc4ccc(F)cc4)c([N+](=O)[O-])c3)n(CCO)c12 | 35.5 µM [falling, single point] | 35.5 µM [falling, single point] |
| Cc1ccc(CNC(=O)CN(c2cccc([N+](=O)[O-])c2)S(=O)(=O)c2ccccc2)cc1 |  | 14.1 µM [rising, single point] |
| NS(=O)(=O)c1ccc(N/N=C/c2ccccn2)c([N+](=O)[O-])c1 | 25.1 µM [falling, partial curve] | 10 µM [falling, partial curve, poor fit] |
| O=C1NC(=S)S/C1=C/c1ccc(N2CCOCC2)o1 |  | 7.94 µM [rising, partial curve] |
| CCOCCCNS(=O)(=O)c1ccc2c(c1)CCN2C(C)=O |  | 14.1 µM [rising, single point] |
| CCn1c(=O)c2c(cnn2C)c2ccccc21 | 0.794 µM [rising, full curve, poor fit] | 3.98 µM [rising, full curve] |
| COc1ccccc1NC(=O)N1CCC(c2nc3ccccc3o2)CC1 |  | 0.0282 µM [falling, full curve, poor fit] |
| Cc1ccc(S(=O)(=O)CCC(=O)OCC(=O)NCc2ccc(Cl)cc2)cc1 |  | 3.98 µM [rising, partial curve, poor fit] |
| CC(C)NS(=O)(=O)c1ccc2c3c(cccc13)CC2 | 20 µM [falling, single point] | 35.5 µM [falling, single point] |
| CCOC(=O)C1(CCCc2ccccc2)CCN(C2CCSCC2)CC1 | 35.5 µM [falling, single point] |  |
| COc1ccccc1N1CCN(C(=O)CSc2nc3ccccc3nc2Cc2ccc(F)cc2)CC1 | 1 µM [rising, full curve, poor fit] | 3.16 µM [rising, full curve] |
| Cc1c(Nc2nc(-c3ccc(Cl)cc3)cs2)c(=O)n(-c2ccccc2)n1C |  | 31.6 µM [rising, partial curve] |
| Cc1ccc(/C=[N+](\[O-])c2ccc(N(C)C)cc2)c2nsnc12 |  | 22.4 µM [rising, single point] |

| SMILES | AC50 [1] | AC50 [2] |
| --- | --- | --- |
| Fc1ccc(Oc2nc(-c3ccccn3)nc3ccccc23)cc1 | 35.5 µM [rising, single point] | 11.2 µM [rising, partial curve] |
| NCCCC(N)(C(=O)O)C(F)F (centres undefined) | 8.91 µM [rising, partial curve] and 1.78 µM [rising, full curve, poor fit] | 7.08 µM [rising, partial curve, poor fit] and 12.6 µM [rising, single point] |
| Cc1ccccc1NCc1cccn1-c1nnc(N2CCOCC2)s1 | 10 µM [falling, partial curve, poor fit] |  |
| CC(Oc1cc(F)ccc1[N+](=O)[O-])C(=O)Nc1ccc(S(=O)(=O)N2CCCC2)cc1 (centres undefined) | 3.16 µM [falling, partial curve, poor fit] |  |
| CN(C)CCCn1c(SCC(=O)N2c3ccccc3Sc3ccccc32)nc2ccccc2c1=O | 35.5 µM [falling, single point] | 20 µM [falling, single point] |
| C/C(=N\Nc1ccc(Cl)cc1)c1c(O)cc(C)oc1=O | 7.08 µM [rising, partial curve, poor fit] | 10 µM [rising, single point] |
| O=C(Nc1ccc([N+](=O)[O-])cc1)Nc1ccc([N+](=O)[O-])cc1 | 22.4 µM [falling, single point] |  |
| Cc1ccc(C(=O)Nc2ccc3c(c2)N(C)C(=O)c2ccccc2S3)cc1 |  | 10 µM [rising, partial curve, poor fit] |
| CCCS(=O)(=O)N1CC(=O)N(c2ccccc2F)C(C)(C(=O)NC2CCCCCC2)C1 (centres undefined) | 0.0178 µM [falling, full curve, poor fit] | 0.02 µM [falling, full curve, poor fit] |
| COc1ccccc1CN1CCNC(=O)C1CC(=O)NC1Cc2ccccc2C1 (centres undefined) | 31.6 µM [falling, partial curve] | 0.0447 µM [falling, full curve, poor fit] |
| COc1ccc(C(=O)C2CCN(S(=O)(=O)c3ccc4c(c3)OCCO4)CC2)cc1 |  | 22.4 µM [rising, single point] |
| CC(=O)Nc1ccc(S(=O)(=O)NC2=C(N3CCN(c4ccc(F)cc4)CC3)C(=O)c3ccccc3C2=O)cc1 | 25.1 µM [falling, single point] |  |
| O=C(NCc1ccccn1)C1CCN(Cc2cccc(OCc3ccccc3)c2)CC1 | 12.6 µM [rising, partial curve, poor fit] |  |
| Cn1nc(C(=O)Nc2ccc(S(=O)(=O)N3CCCCC3)cc2)ccc1=O | 35.5 µM [rising, single point] | 35.5 µM [rising, single point] |
| COc1ccc(OC)c(CCNC(=O)CSc2ccsc2[N+](=O)[O-])c1 |  | 10 µM [rising, partial curve, poor fit] |
| Cn1c(SCC(=O)Nc2ccc(N3CCOCC3)c(Cl)c2)nnc1C(O)c1ccccc1 (centres undefined) |  | 22.4 µM [rising, single point] |
| Cc1ccc(C)n1NC(=O)c1ccco1 | 0.355 µM [falling, partial curve, poor fit] | 1.78 µM [falling, partial curve, poor fit] |
| Cc1ccc(S(=O)(=O)N(C)c2ccc(OCC(=O)Nc3nc4ccccc4s3)cc2)cc1 | 3.98 µM [rising, full curve, poor fit] | 3.98 µM [rising, full curve] |
| NNc1nc2c(-c3ccc(Cl)cc3)nnn2c2ccccc12 | 12.6 µM [falling, single point] |  |
| CCOc1ccc(Br)cc1S(=O)(=O)Nc1ccc(C(=O)OC(C)C(=O)N(C)c2ccccc2)cc1 (centres undefined) | 12.6 µM [rising, single point] | 14.1 µM [rising, single point] |
| CN(CC(=O)Nc1ccccc1Sc1ccccc1)Cc1nc2ccccc2c(=O)[nH]1 |  | 35.5 µM [rising, partial curve, poor fit] |
| O=C(Cc1ccc(Cl)cc1)Nc1cccc(S(=O)(=O)Nc2ccccc2F)c1 |  | 28.2 µM [rising, single point] |
| Oc1ccc(/C=C/c2nc(-c3ccccc3O)n(-c3ccccc3)n2)cc1 | 25.1 µM [falling, single point] | 22.4 µM [falling, single point] |
| O=C(CCN1CCCCC1)NNC(=O)C12CC3CC(CC(C3)C1)C2 |  | 0.02 µM [rising, full curve, poor fit] |
| O=S(=O)(Nc1nc2ccccc2nc1N1CCc2ccccc2C1)c1ccc(Br)cc1 |  | 14.1 µM [rising, partial curve] |
| COc1cccc(CC2(CO)CCN(C(=O)NC3CCCCC3)CC2)c1 | 3.98 µM [falling, full curve, poor fit] | 2.51 µM [falling, full curve, poor fit] |

Exported as labelled records: part of the list above.
CC(Oc1cc(F)ccc1[N+](=O)[O-])C(=O)Nc1ccc(S(=O)(=O)N2CCCC2)cc1 (centres undefined)
  AC50 [1]: 3.16 µM [falling, partial curve, poor fit]
CN(C)CCCn1c(SCC(=O)N2c3ccccc3Sc3ccccc32)nc2ccccc2c1=O
  AC50 [1]: 35.5 µM [falling, single point]; AC50 [2]: 20 µM [falling, single point]
